Reference: the supplement of paper PMC7877785
± gives the uncertainty stated by the source. Many of these values have a large error.

Test: self-splicing fitness, log relative to wild type (ln ratio); higher = more splicing; Tetrahymena group I intron in knt gene, E. coli kanamycin selection, DiMSum; sequences stand for … in CUCUCU…GGAGGGAAAAGUUAUCAGGCAUGCACCUGGUAGCUAGUCUUUAAACCAAUAGAUUGCAUCGGUUUAAAAGGCAAGACCGUCAAAUUGCGGGAAAGGGGUCAACAGCCGUUCAGUACCAAGUCUCAGGGGAAACUUUGAGAUGGCCUUGCAAAGGGUAUGGUAAUAAGCUGACGGACAUGGUCCUAACCACGCAGCCAAGUCCUAAGUCAACAGAUCUUCUGUUGAUAUGGAUGCAGUUCACAGACUAAAUGUCGGUCGGGGAAGAUGUAUUCUUCUCAUAAGAUAUAGUCGGACCUCUCCUUAAUGGGAGCUAGCGGAUGAAGUGAUGCAACACUGGAGCCGCUGGGAACUAAUUUGUAUGCGAAAGUAUAUUGAUUAGUUUUGGAGUACUCGUGGUCG
In short: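 The eight P1ex-region nucleotides of an intron in the knt kanamycin-resistance gene on pET-22b(+) were all randomised and the library put into E. coli BL21(DE3). Six replicate transformations were grown overnight at 37°C or 30°C on LB agar with or without 25 μg/mL kanamycin, together with 100 μg/mL carbenicillin, 50 μM IPTG and 0.2% rhamnose. Colonies were pooled and amplicon-sequenced on an Illumina HiSeq 2500. Fitness from DiMSum is the error-weighted combination of wild-type-normalised replicate fold changes, kanamycin over none.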

Sequence	self-splicing fitness (ln) (30 °C)	self-splicing fitness (ln) (37 °C)
CUGCAGCAAUAUUACGCUCU	-3.52 ± 0.41	-2.27 ± 0.25
UGGGAGCAAUAUUACGAAGU	-4.5 ± 1	
UCCGAGCAAUAUUACGAACC		-0.927 ± 1.2
UCCAAGCAAUAUUACGCGAC		-2.84 ± 0.54
UCACAGCAAUAUUACGCGAU	-3.15 ± 0.54	-2.4 ± 0.51
UCAGAGCAAUAUUACGGGGA	-1.48 ± 0.11	-1.1 ± 0.13
GGUUAGCAAUAUUACGCUAA		-2 ± 0.51
AAAGAGCAAUAUUACGGAAC	-4.97 ± 0.72	
UCUGAGCAAUAUUACGAGCC		-2.92 ± 0.61
CAUGAGCAAUAUUACGGGAA	-3.83 ± 0.62	
UUGCAGCAAUAUUACGAUAC	-3.58 ± 0.74	-1.74 ± 0.47
GAGCAGCAAUAUUACGCUAU	-2.73 ± 0.27	-1.93 ± 0.17
UCGAAGCAAUAUUACGUGCC		-2.77 ± 1.1
GUAUAGCAAUAUUACGUUGC		-3.27 ± 0.52
UUUGAGCAAUAUUACGUGGC	-4.44 ± 0.59	-2.66 ± 0.56
CGAAAGCAAUAUUACGAAGC	-2.9 ± 0.61	-2.02 ± 0.56
CUUGAGCAAUAUUACGUUUC	-3.44 ± 0.27	-2.68 ± 0.36
CUUAAGCAAUAUUACGAUAA	-4.53 ± 0.59	
CUAUAGCAAUAUUACGAAAC	-3.89 ± 1	
CCAUAGCAAUAUUACGGAGC	-4.61 ± 0.72	
CCCGAGCAAUAUUACGACUC	-3.6 ± 0.78	-0.949 ± 0.51
GCGAAGCAAUAUUACGCUGU		-2.69 ± 0.63
CUGCAGCAAUAUUACGCGGC	-4.84 ± 0.51	-2.63 ± 0.34
CCUUAGCAAUAUUACGGCCU	-4.17 ± 1.1	

Sequence	self-splicing fitness (ln) (30 °C)	self-splicing fitness (ln) (37 °C)
GGGGAGCAAUAUUACGGUUC	-4.54 ± 0.51	-2.04 ± 0.59
AGUGAGCAAUAUUACGCCAC	-1.93 ± 1.2	
UGAAAGCAAUAUUACGCGAA	-1.52 ± 0.17	-1.05 ± 0.2
UGGAAGCAAUAUUACGUUCC	-2.71 ± 0.79	-0.749 ± 0.56
ACGGAGCAAUAUUACGGUGC	-3.94 ± 0.59	-1.28 ± 0.51
CGUGAGCAAUAUUACGAGUA	-2.35 ± 0.62	
CUAGAGCAAUAUUACGUGCA	-3.88 ± 0.21	-2.18 ± 0.19
AACUAGCAAUAUUACGACGA	-0.137 ± 0.066	-0.576 ± 0.074
UCUAAGCAAUAUUACGCUUG	-4.37 ± 0.59	
UUAAAGCAAUAUUACGUUUC	-3.92 ± 0.39	-1.18 ± 0.31
CUUAAGCAAUAUUACGUCGC	-5.15 ± 0.51	
CGUUAGCAAUAUUACGAGAC	-2.59 ± 0.55	-1.32 ± 0.61
GGGUAGCAAUAUUACGCAAA	-1.48 ± 0.74	0.0662 ± 0.52
UGUGAGCAAUAUUACGAGAC	-1.38 ± 0.64	-2.78 ± 0.62
CGAUAGCAAUAUUACGCAUA	-3.25 ± 0.28	-1.8 ± 0.24
CAUAAGCAAUAUUACGGUGG	-1.24 ± 0.075	-0.683 ± 0.088
UCUGAGCAAUAUUACGCGUC	-4.17 ± 0.51	
GUCAAGCAAUAUUACGGCCC		-1.34 ± 0.87
UUAGAGCAAUAUUACGGACU	-4.12 ± 1	-1.37 ± 0.71
ACGCAGCAAUAUUACGCAGG	-4.17 ± 0.6	
UAUGAGCAAUAUUACGGGAA	-3.51 ± 1	
CGUAAGCAAUAUUACGUCUA	-2.78 ± 0.28	-2.03 ± 0.18
CAUUAGCAAUAUUACGCAAU	-4.45 ± 0.74	
GCGAAGCAAUAUUACGGGUC	-5.35 ± 1	

Sequence	self-splicing fitness (ln) (30 °C)	self-splicing fitness (ln) (37 °C)
AAAUAGCAAUAUUACGCUAC	-3.47 ± 0.75	
AUAUAGCAAUAUUACGUCCU	-0.548 ± 0.11	0.119 ± 0.12
ACUGAGCAAUAUUACGCCUC		-2.78 ± 0.54
CCGAAGCAAUAUUACGACCC	-3.51 ± 0.74	0.475 ± 0.81
GCGGAGCAAUAUUACGUUUA	-2.11 ± 0.57	
GCUGAGCAAUAUUACGUCAA		-3.99 ± 0.51
UGCGAGCAAUAUUACGGCAU		-2.77 ± 0.61
GUGUAGCAAUAUUACGAAUG	-2.91 ± 1.1	
CGGGAGCAAUAUUACGUCUC		-3.14 ± 0.74
AGUUAGCAAUAUUACGGCGC	-0.53 ± 0.22	0.14 ± 0.33
UGGGAGCAAUAUUACGCCAA	-2.56 ± 0.58	-2.99 ± 0.75
CCGUAGCAAUAUUACGCAGG	-4.73 ± 1	
UUCUAGCAAUAUUACGAUGC	-2.12 ± 0.3	-2.86 ± 0.38
UCGGAGCAAUAUUACGUACU	-4.81 ± 0.72	
GACGAGCAAUAUUACGAAAU		-2.79 ± 0.53
CGCAAGCAAUAUUACGCAGC	-5.08 ± 0.72	
GACGAGCAAUAUUACGAUAG	-5.2 ± 0.51	
UGGGAGCAAUAUUACGCCGU	-4.93 ± 1	-2.22 ± 0.64
UCUCAGCAAUAUUACGCCGA	-4.4 ± 0.73	
UCACAGCAAUAUUACGCAAC	-3.65 ± 0.6	
CCGAAGCAAUAUUACGAUUC	-4.08 ± 0.52	
AUCAAGCAAUAUUACGCUUC	-3.3 ± 0.66	
GGCUAGCAAUAUUACGAAAU	-1.67 ± 0.22	0.0518 ± 0.2
GGGAAGCAAUAUUACGUCAA		-2.08 ± 0.56

Sequence	self-splicing fitness (ln) (30 °C)	self-splicing fitness (ln) (37 °C)
GGUGAGCAAUAUUACGAAUC	-2.87 ± 0.56	
CCGUAGCAAUAUUACGCGAC	-1.91 ± 0.53	-0.595 ± 1.4
GUGCAGCAAUAUUACGAGCC		-1.33 ± 1.2
AUGGAGCAAUAUUACGCGGG	-2.84 ± 0.45	-2.16 ± 0.55
UUCGAGCAAUAUUACGGCUC	-2.11 ± 0.8	-2.11 ± 0.56
GACGAGCAAUAUUACGCCAC	-0.828 ± 1	-0.352 ± 0.56
AGCAAGCAAUAUUACGUCGG	-2.93 ± 0.19	-1.59 ± 0.19
UGUGAGCAAUAUUACGUAUC	-3.75 ± 0.37	-2.3 ± 0.32
AGCGAGCAAUAUUACGAAAA	-0.721 ± 0.78	
CAGGAGCAAUAUUACGUGAU	-4.53 ± 0.46	-1.95 ± 0.23
CAGAAGCAAUAUUACGAGGC	-4.65 ± 0.51	
AUUGAGCAAUAUUACGAGAC	-2.09 ± 1.4	
GGAAAGCAAUAUUACGUCUC		-2.29 ± 0.79
GAUAAGCAAUAUUACGCUUA	-3.59 ± 0.31	-2.91 ± 0.23
AUUAAGCAAUAUUACGCGAC	-1.76 ± 0.54	
CCUCAGCAAUAUUACGAUCC		-3.23 ± 0.74
CGAGAGCAAUAUUACGCUGU	-5.46 ± 0.71	
UGGGAGCAAUAUUACGUCGC		-1.02 ± 0.67
GACCAGCAAUAUUACGAGCG	-2.08 ± 0.067	-0.434 ± 0.077
UAGGAGCAAUAUUACGUUAC	-3.41 ± 0.6	
CGUGAGCAAUAUUACGCCGC	-3.52 ± 1.1	-1.83 ± 1.1
GGGGAGCAAUAUUACGCCAA	-2.23 ± 0.6	
UGAGAGCAAUAUUACGCGCU		-1.2 ± 0.73
AUAGAGCAAUAUUACGAUCC	-3.08 ± 0.33	-2.18 ± 0.36

Sequence	self-splicing fitness (ln) (30 °C)	self-splicing fitness (ln) (37 °C)
UCAUAGCAAUAUUACGGCCA	-1.68 ± 0.87	
CCUUAGCAAUAUUACGGACA		-2.47 ± 0.63
CUGUAGCAAUAUUACGUCUA	-3.36 ± 0.53	
GAUAAGCAAUAUUACGCUUC	-5.25 ± 0.58	
CCCCAGCAAUAUUACGCCCC		-2.57 ± 0.55
GGAGAGCAAUAUUACGUUGA	-3.26 ± 1	
UGUAAGCAAUAUUACGCAAG	-2.85 ± 0.39	-2.66 ± 0.44
GGAGAGCAAUAUUACGGGCU		-2.92 ± 0.53
CCGUAGCAAUAUUACGCCCA	-2.81 ± 1.1	-2.54 ± 0.48
AAUGAGCAAUAUUACGAUCA	-2.53 ± 0.58	
UAUAAGCAAUAUUACGGGCC	-2.99 ± 0.31	-2.7 ± 0.62
AGCGAGCAAUAUUACGAGAA	-3.16 ± 1	-1.13 ± 1.2
GGCAAGCAAUAUUACGGAAC	-1.46 ± 0.13	0.485 ± 0.21
GGAUAGCAAUAUUACGUUAG	-4.44 ± 0.6	
CCCUAGCAAUAUUACGUCCC	-2.51 ± 0.66	
UAGUAGCAAUAUUACGCAUC		-1.6 ± 0.73
UUGAAGCAAUAUUACGAAAC	-3.86 ± 1	-2.22 ± 0.64
CGGUAGCAAUAUUACGAUGA	-1.38 ± 0.13	-0.66 ± 0.16
GUCCAGCAAUAUUACGGGCC	-4.75 ± 0.72	-3.05 ± 0.6
GAAGAGCAAUAUUACGGACG		-2.77 ± 0.53
GGGGAGCAAUAUUACGGGCU	-2.37 ± 0.56	-1.74 ± 0.59
AGAUAGCAAUAUUACGAAGA	-1.93 ± 1.2	

Fetched one by one from above, 6 records:
Sequence	self-splicing fitness (ln) (30 °C)	self-splicing fitness (ln) (37 °C)
CAUAAGCAAUAUUACGGUGG	-1.24 ± 0.075	-0.683 ± 0.088
AUAUAGCAAUAUUACGUCCU	-0.548 ± 0.11	0.119 ± 0.12
UGUGAGCAAUAUUACGUAUC	-3.75 ± 0.37	-2.3 ± 0.32
CGAGAGCAAUAUUACGCUGU	-5.46 ± 0.71	
CGUAAGCAAUAUUACGUCUA	-2.78 ± 0.28	-2.03 ± 0.18
GGGGAGCAAUAUUACGGGCU	-2.37 ± 0.56	-1.74 ± 0.59

Quoted from the results shown (2 entries):
Sequence	self-splicing fitness (ln) (30 °C)	self-splicing fitness (ln) (37 °C)
UAGUAGCAAUAUUACGCAUC		-1.6 ± 0.73
UUGAAGCAAUAUUACGAAAC	-3.86 ± 1	-2.22 ± 0.64
